Experimental data: patent US10563263B2, “Genetic polymorphisms associated with statin response and cardiovascular diseases, methods of detection and uses thereof” (CELERA CORPORATION, priority 2010, dated 2020)
This continues a long series; more values of the same kind are listed elsewhere.

Test system: CVD (CHD or stroke)
Test: CARE: SNP by pravastatin treatment interaction, logistic regression (synergy index), CVD endpoint
Format: in vivo, human
Description: CARE was a secondary prevention trial and WOSCOPS was a primary prevention trial.
The CHD endpoint was defined in the analyses herein of CARE as a composite endpoint of fatal CHD, definite non-fatal MI, or revascularization, and was defined in the analyses herein of WOSCOPS as a composite endpoint of death from CHD, nonfatal MI, or revascularization. In both the CARE and WOSCOPS analyses herein, the CVD endpoint was defined as a composite endpoint of CHD or stroke. […] Revascularization, which can include percutaneous transluminal coronary angioplasty (PTCA), stent placement, and coronary artery bypass graft (CABG), are medical interventions that indicate the presence of CHD.
Cohort and case-only study designs were used to identify SNPs associated with response to statin treatment.
For each SNP, a logistic regression model having treatment status as the dependent variable and SNP as the independent predictor variable was performed, with terms for age, sex and race included in the model as covariates. The anti-log of the regression coefficient corresponding to the SNP is an estimate of the synergy index (SI) (Davis et al., “Imputing gene-treatment interactions when the genotype distribution is unknown using case-only and putative placebo analyses-a new method for the Genetics of Hypertension Associated Treatment (GenHAT) study”, Statistics in Medicine 23: (2004), pages 2413-2427). The SI is a ratio of odds ratios: for example in the CARE and WOSCOPS studies, the SI represents the factor by which the odds-ratio of statin treatment, compared with placebo, among major homozygous individuals is multiplied by in order to obtain the odds-ratio of treatment vs. placebo among heterozygous individuals; and multiplied by a second time to obtain the odds-ratio of treatment vs. placebo in minor homozygous individuals. […] In a randomized clinical trial, genotype and treatment are independent by design.

## CC[C@H](C)C(=O)O[C@H]1C[C@H](O)C=C2C=C[C@H](C)[C@H](CC[C@@H](O)C[C@@H](O)CC(=O)O)[C@H]21 [Pravastatin, pravastatin]
rs4714484 allele A1=A, model ADD, Imputed, pravastatin vs placebo
  OR: 0.6694
rs4736802 allele A1=G, model DOM, Imputed, pravastatin vs placebo
  OR: 1.64
rs4760785 allele A1=A, model ADD, Imputed, pravastatin vs placebo
  OR: 0.7218
rs4760785 allele A1=A, model DOM, Imputed, pravastatin vs placebo
  OR: 0.6464
rs4760894 allele A1=T, model ADD, Imputed, pravastatin vs placebo
  OR: 0.7218
rs4760894 allele A1=T, model DOM, Imputed, pravastatin vs placebo
  OR: 0.6464
rs4760895 allele A1=A, model ADD, Imputed, pravastatin vs placebo
  OR: 0.7218
rs4760895 allele A1=A, model DOM, Imputed, pravastatin vs placebo
  OR: 0.6464
rs4764738 allele A1=A, model ADD, Imputed, pravastatin vs placebo
  OR: 1.331
rs4764974 allele A1=T, model ADD, Imputed, pravastatin vs placebo
  OR: 1.322
rs4798366 allele A1=G, model REC, Imputed, pravastatin vs placebo
  OR: 1.597
rs4836502 allele A1=T, model DOM, Imputed, pravastatin vs placebo
  OR: 0.6617
rs4836507 allele A1=C, model DOM, Imputed, pravastatin vs placebo
  OR: 0.6716
rs4836744 allele A1=A, model ADD, Imputed, pravastatin vs placebo
  OR: 0.7163
rs4836744 allele A1=A, model DOM, Imputed, pravastatin vs placebo
  OR: 0.6971
rs4848944 allele A1=C, model REC, Genotyped, pravastatin vs placebo
  OR: 0.6741
rs4851529 allele A1=A, model DOM, Imputed, pravastatin vs placebo
  OR: 0.6968
rs4851531 allele A1=T, model DOM, Imputed, pravastatin vs placebo
  OR: 0.7275
rs4878214 allele A1=A, model ADD, Imputed, pravastatin vs placebo
  OR: 0.5979
rs4880803 allele A1=A, model ADD, Imputed, pravastatin vs placebo
  OR: 0.7753
rs4896568 allele A1=T, model DOM, Imputed, pravastatin vs placebo
  OR: 0.6713
rs4938851 allele A1=T, model DOM, Imputed, pravastatin vs placebo
  OR: 1.543
rs4964416 allele A1=C, model DOM, Imputed, pravastatin vs placebo
  OR: 0.598
rs5756669 allele A1=C, model DOM, Imputed, pravastatin vs placebo
  OR: 1.724
rs6033138 allele A1=C, model ADD, Imputed, pravastatin vs placebo
  OR: 1.371
rs6033138 allele A1=C, model REC, Imputed, pravastatin vs placebo
  OR: 1.836
rs6040619 allele A1=C, model ADD, Imputed, pravastatin vs placebo
  OR: 1.337
rs6040619 allele A1=C, model REC, Imputed, pravastatin vs placebo
  OR: 1.844
rs6040625 allele A1=T, model ADD, Imputed, pravastatin vs placebo
  OR: 1.343
rs6040625 allele A1=T, model REC, Imputed, pravastatin vs placebo
  OR: 1.844
rs6040630 allele A1=A, model ADD, Imputed, pravastatin vs placebo
  OR: 1.353
rs6040630 allele A1=A, model REC, Imputed, pravastatin vs placebo
  OR: 1.892
rs6040633 allele A1=A, model ADD, Imputed, pravastatin vs placebo
  OR: 1.35
rs6040633 allele A1=A, model REC, Imputed, pravastatin vs placebo
  OR: 1.888
rs6040634 allele A1=T, model ADD, Imputed, pravastatin vs placebo
  OR: 1.353
rs10922903 allele C, REC model, Imputed
  OR: 0.4885
rs10941126 allele G, ADD model, Imputed
  OR: 0.2198
rs10941126 allele G, DOM model, Imputed
  OR: 0.2258
rs10947980 allele G, ADD model, Imputed
  OR: 0.7397
rs11059376 allele T, ADD model, Imputed
  OR: 1.559
rs11072995 allele T, REC model, Imputed
  OR: 3.578
rs11081202 allele G, REC model, Genotyped
  OR: 1.887
rs11124962 allele A, DOM model, Imputed
  OR: 1.469
rs11178531 allele A, ADD model, Imputed
  OR: 0.7599
rs11178531 allele A, DOM model, Imputed
  OR: 0.6258
rs11178583 allele A, ADD model, Imputed
  OR: 0.7274
rs11178583 allele A, DOM model, Imputed
  OR: 0.6032
rs11178589 allele T, ADD model, Imputed
  OR: 0.7243
rs11178589 allele T, DOM model, Imputed
  OR: 0.5988
rs11178594 allele C, ADD model, Imputed
  OR: 0.7305
rs11178594 allele C, DOM model, Imputed
  OR: 0.5995
rs11178602 allele T, ADD model, Imputed
  OR: 0.7265
rs11178602 allele T, DOM model, Imputed
  OR: 0.592
rs11178648 allele T, ADD model, Imputed
  OR: 0.7481
rs11178648 allele T, DOM model, Imputed
  OR: 0.5905
rs11198877 allele T, DOM model, Imputed
  OR: 1.634
rs11198942 allele T, DOM model, Imputed
  OR: 1.654
rs11221075 allele A, ADD model, Imputed
  OR: 0.6446
rs11242020 allele T, DOM model, Imputed
  OR: 0.6462
rs11242021 allele T, DOM model, Imputed
  OR: 0.6617
rs11242022 allele T, DOM model, Imputed
  OR: 0.6617
rs11242023 allele T, DOM model, Imputed
  OR: 0.6676
rs11576627 allele T, ADD model, Imputed
  OR: 1.72
rs11576627 allele T, DOM model, Imputed
  OR: 1.805
rs11630050 allele G, REC model, Imputed
  OR: 3.097
rs11633024 allele C, REC model, Imputed
  OR: 3.097
rs11636298 allele G, REC model, Imputed
  OR: 3.433
rs11637363 allele C, REC model, Imputed
  OR: 3.309
rs11637813 allele A, REC model, Imputed
  OR: 3.097
rs11638043 allele C, REC model, Imputed
  OR: 2.984
rs11638115 allele A, REC model, Imputed
  OR: 3.578
rs11717157 allele T, ADD model, Imputed
  OR: 1.366
rs11724055 allele A, DOM model, Imputed
  OR: 0.6341
rs11743355 allele C, ADD model, Imputed
  OR: 0.2056
rs11743355 allele C, DOM model, Imputed
  OR: 0.2102
rs11746806 allele T, ADD model, Imputed
  OR: 0.2198
rs11746806 allele t, DOM model, Imputed
  OR: 0.2258
rs11746959 allele T, ADD model, Imputed
  OR: 0.2198
rs11746959 allele T, DOM model, Imputed
  OR: 0.2258
rs11749272 allele T, DOM model, Imputed
  OR: 0.6489
rs11853619 allele C, REC model, Imputed
  OR: 3.396
rs11856780 allele A, REC model, Imputed
  OR: 3.396
rs11901899 allele A, DOM model, Imputed
  OR: 1.388
rs11903290 allele C, REC model, Imputed
  OR: 1.68
rs11909480 allele G, ADD model, Imputed
  OR: 0.3557
rs11909480 allele G, DOM model, Imputed
  OR: 0.3552
rs11910289 allele T, ADD model, Imputed
  OR: 1.705
rs11910289 allele T, DOM model, Imputed
  OR: 1.77
rs11926319 allele G, DOM model, Imputed
  OR: 0.5553
rs11933744 allele T, REC model, Imputed
  OR: 2.427
rs11934919 allele C, REC model, Imputed
  OR: 2.427
rs11934957 allele C, REC model, Imputed
  OR: 2.427
rs11959206 allele A, REC model, Imputed
  OR: 0.528
rs17076972 allele C, REC model, Imputed
  OR: 1.816
rs17189710 allele T, ADD model, Imputed
  OR: 1.338
rs17196143 allele A, ADD model, Imputed
  OR: 1.57
rs17353809 allele G, ADD model, Imputed
  OR: 1.511
rs17446418 allele G, DOM model, Imputed
  OR: 0.537
rs17530747 allele T, DOM model, Imputed
  OR: 0.525
rs17604285 allele C, ADD model, Imputed
  OR: 0.533
rs17604285 allele C, DOM model, Imputed
  OR: 0.504
rs17662322 allele T, DOM model, Imputed
  OR: 0.555
rs17769826 allele T, ADD model, Imputed
  OR: 1.504
rs17821641 allele T, ADD model, Imputed
  OR: 1.5
